The record followed here is the supplement of paper PMC12067093, “Discovery and optimisation of a covalent ligand for TRIM25 and its application to targeted protein ubiquitination” (Chemical Science, 2025).

Amino acid sequences for entries named in this document (tags omitted). A change or cut given only in a name is not applied to a line headed by its entry.
UniProt Q86VU5: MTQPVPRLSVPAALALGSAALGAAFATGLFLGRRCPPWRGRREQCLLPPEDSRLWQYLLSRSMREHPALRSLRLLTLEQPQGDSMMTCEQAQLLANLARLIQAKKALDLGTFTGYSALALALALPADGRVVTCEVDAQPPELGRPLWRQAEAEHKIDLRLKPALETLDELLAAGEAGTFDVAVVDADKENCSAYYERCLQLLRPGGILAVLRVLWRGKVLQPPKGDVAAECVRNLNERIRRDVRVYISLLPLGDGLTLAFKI
UniProt Q9Y678: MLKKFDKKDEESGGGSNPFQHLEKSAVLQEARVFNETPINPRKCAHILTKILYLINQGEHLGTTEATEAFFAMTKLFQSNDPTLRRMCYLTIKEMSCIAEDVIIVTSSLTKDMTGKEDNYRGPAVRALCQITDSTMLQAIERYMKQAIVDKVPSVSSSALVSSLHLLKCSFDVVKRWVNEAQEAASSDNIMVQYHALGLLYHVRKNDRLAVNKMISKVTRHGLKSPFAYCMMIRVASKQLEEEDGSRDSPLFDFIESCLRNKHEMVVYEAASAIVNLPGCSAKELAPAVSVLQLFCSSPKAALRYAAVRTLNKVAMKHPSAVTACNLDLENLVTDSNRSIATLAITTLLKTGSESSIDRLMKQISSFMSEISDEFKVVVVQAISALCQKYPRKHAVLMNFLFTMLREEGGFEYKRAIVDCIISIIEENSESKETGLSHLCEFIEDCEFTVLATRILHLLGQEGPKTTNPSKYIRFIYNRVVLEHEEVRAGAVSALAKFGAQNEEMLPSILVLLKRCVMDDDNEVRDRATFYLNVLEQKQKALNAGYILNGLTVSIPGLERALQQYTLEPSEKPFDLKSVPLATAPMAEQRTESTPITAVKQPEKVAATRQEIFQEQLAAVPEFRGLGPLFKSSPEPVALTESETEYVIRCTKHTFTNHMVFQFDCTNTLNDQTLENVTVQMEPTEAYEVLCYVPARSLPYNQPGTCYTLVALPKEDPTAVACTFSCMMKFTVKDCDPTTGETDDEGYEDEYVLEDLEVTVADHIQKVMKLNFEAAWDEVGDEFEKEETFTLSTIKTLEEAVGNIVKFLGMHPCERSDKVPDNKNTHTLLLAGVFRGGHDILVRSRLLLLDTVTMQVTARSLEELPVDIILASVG
UniProt Q9UBF2: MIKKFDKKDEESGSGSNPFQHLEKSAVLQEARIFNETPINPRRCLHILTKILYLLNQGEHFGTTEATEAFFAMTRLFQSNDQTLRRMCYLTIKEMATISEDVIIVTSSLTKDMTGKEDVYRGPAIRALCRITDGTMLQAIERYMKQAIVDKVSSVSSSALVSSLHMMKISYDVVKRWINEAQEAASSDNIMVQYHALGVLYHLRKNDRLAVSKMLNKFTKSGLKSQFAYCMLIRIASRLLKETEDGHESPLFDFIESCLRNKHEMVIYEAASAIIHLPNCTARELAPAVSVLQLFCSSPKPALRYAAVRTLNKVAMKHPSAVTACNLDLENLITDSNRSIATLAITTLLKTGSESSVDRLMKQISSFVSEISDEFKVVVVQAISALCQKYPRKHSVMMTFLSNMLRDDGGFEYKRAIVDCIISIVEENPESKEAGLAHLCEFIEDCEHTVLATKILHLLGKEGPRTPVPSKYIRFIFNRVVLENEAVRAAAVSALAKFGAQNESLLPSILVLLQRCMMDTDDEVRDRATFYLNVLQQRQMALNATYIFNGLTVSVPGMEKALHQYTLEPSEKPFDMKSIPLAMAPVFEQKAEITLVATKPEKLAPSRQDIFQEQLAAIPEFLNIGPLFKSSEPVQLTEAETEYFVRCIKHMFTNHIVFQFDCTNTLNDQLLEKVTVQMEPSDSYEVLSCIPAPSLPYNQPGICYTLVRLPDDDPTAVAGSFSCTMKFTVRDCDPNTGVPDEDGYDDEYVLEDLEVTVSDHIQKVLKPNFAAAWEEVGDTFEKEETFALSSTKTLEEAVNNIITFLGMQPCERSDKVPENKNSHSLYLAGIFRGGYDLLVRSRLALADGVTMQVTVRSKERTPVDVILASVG
UniProt Q9UIV1, whole entry, looked up: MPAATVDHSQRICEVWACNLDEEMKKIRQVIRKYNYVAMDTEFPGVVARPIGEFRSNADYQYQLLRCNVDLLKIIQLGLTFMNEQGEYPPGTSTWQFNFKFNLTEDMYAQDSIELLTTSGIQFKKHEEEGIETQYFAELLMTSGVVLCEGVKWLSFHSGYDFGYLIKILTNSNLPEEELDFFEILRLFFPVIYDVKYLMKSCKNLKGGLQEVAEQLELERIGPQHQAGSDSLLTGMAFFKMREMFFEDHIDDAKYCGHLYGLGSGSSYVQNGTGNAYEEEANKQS
UniProt Q9NZJ6: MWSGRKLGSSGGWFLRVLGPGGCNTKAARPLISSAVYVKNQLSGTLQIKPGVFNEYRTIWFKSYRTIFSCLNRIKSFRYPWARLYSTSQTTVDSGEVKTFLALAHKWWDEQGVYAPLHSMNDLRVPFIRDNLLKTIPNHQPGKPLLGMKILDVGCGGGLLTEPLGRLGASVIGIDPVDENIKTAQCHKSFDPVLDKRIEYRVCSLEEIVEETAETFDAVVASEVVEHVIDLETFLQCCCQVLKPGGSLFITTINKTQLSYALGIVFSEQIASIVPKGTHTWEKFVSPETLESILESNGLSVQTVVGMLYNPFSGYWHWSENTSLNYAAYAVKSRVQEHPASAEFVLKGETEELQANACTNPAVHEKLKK
UniProt P35606: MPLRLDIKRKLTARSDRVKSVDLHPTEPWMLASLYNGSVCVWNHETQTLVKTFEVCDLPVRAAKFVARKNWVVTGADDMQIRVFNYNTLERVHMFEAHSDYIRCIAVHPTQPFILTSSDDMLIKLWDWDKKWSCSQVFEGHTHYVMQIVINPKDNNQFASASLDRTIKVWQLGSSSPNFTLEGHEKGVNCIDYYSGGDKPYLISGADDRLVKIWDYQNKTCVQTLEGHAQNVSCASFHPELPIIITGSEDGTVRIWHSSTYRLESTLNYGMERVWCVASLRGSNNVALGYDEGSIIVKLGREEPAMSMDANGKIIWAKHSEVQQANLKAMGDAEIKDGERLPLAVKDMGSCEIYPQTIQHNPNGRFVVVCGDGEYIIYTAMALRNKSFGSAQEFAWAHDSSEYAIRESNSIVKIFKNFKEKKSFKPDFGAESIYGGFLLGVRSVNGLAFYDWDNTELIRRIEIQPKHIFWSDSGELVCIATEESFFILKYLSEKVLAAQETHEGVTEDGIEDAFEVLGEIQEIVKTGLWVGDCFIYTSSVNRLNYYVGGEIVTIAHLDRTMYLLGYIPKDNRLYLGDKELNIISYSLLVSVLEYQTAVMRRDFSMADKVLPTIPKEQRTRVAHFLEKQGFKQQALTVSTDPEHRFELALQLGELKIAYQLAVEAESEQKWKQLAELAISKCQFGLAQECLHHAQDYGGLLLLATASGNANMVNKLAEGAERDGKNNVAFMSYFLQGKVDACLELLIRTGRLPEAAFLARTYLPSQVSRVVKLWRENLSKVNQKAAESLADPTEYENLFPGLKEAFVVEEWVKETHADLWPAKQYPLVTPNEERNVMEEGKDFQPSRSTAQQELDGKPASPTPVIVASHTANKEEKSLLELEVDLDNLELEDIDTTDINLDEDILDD
UniProt Q9H9Q2: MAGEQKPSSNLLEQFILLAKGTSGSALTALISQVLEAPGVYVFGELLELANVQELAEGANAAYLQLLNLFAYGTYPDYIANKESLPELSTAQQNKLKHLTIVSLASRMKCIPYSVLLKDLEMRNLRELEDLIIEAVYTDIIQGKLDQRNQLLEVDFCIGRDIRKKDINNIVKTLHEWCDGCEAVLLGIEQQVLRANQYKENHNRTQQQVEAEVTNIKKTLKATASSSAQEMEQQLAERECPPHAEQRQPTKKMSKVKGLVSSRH
UniProt Q8WTW3: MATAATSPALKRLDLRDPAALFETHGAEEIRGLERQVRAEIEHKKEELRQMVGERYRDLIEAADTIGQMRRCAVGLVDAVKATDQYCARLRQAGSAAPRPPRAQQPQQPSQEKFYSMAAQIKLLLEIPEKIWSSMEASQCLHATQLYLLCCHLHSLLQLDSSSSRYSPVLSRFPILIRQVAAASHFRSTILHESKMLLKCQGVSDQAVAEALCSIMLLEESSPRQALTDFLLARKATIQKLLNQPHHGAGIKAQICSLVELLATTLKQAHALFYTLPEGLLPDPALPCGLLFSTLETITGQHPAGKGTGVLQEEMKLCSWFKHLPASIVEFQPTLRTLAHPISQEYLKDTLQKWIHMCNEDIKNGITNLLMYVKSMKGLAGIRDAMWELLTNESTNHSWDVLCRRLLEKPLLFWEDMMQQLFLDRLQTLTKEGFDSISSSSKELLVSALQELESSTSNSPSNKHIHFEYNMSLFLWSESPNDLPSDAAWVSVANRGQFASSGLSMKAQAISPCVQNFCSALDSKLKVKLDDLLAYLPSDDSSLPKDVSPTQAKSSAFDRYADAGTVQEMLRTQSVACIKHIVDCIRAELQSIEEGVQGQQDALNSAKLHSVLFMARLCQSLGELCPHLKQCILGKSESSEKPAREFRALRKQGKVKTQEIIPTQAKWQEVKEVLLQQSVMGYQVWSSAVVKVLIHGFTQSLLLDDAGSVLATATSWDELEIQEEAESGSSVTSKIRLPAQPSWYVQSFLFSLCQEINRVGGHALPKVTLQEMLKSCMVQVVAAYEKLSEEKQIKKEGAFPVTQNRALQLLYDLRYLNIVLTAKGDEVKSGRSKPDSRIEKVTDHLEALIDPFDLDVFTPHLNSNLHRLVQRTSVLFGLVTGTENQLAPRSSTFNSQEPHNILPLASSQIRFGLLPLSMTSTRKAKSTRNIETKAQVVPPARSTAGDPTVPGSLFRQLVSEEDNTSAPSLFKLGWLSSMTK
UniProt Q5EBM0: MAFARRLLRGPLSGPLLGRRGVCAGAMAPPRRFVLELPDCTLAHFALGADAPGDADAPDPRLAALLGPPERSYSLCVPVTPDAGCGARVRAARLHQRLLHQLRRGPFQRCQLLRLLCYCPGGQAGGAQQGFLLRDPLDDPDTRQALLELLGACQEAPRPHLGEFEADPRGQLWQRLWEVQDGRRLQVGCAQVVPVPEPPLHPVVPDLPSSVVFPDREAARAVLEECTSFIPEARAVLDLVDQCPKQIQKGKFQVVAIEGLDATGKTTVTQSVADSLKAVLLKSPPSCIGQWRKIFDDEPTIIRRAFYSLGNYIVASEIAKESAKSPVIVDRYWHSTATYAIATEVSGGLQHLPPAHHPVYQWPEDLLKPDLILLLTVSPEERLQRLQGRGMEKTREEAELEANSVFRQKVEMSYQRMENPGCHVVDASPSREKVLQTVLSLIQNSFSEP
UniProt O14579: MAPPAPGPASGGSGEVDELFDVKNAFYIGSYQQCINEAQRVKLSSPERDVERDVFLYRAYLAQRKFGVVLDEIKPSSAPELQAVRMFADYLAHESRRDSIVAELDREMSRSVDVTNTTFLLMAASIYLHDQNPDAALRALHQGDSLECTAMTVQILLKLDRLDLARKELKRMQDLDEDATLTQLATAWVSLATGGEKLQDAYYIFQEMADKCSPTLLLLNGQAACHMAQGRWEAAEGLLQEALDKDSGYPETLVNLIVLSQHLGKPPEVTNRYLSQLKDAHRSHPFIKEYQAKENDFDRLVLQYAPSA
UniProt P09543: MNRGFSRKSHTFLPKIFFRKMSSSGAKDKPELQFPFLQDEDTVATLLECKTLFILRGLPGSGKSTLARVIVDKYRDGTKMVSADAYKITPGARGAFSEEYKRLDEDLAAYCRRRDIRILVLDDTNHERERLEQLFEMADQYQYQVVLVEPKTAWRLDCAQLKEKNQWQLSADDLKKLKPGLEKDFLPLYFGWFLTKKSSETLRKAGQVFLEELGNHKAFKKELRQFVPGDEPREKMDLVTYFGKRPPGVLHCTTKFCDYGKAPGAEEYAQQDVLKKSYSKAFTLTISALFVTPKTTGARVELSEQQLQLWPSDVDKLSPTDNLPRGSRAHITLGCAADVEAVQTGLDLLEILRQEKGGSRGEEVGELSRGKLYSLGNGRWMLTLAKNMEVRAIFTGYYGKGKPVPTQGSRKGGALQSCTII
UniProt P21964: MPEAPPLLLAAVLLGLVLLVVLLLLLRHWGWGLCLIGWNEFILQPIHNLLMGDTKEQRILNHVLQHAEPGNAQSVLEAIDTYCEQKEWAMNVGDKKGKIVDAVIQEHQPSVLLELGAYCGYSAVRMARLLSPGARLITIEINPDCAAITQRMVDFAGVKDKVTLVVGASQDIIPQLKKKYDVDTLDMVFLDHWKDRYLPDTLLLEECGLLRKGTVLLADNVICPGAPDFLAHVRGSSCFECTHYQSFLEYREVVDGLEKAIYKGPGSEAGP
UniProt Q7Z7K0: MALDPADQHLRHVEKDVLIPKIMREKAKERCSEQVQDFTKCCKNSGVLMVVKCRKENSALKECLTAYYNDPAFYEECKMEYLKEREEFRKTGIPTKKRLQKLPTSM

This is one part of the list.
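Also: competitive chemoproteomic profiling in live THP-1 cells with an iodoacetamide desthiobiotin (IA-DTB) probe, comparing probe-labelled peptide intensities in compound-treated cells against DMSO-treated controls.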

Compound in the assay: CC1Cc2ccccc2N1C(=O)C1CCCN(C1)C(=O)CCl (mixture of isomers) [TRIM25 ligand 11 (diastereomer mixture)]
Kind of assay: probe-labelled cysteine peptide fold change vs DMSO (competition) (log2 fold change); higher = less target engagement (more negative = stronger competition). The following applies: 10 µM; THP-1; incubation time: 4 h.
In the case of “COMTD1_Q86VU5_45_EQCLLPPEDSR (UniProt Q86VU5)”, the “probe-labelled cysteine peptide fold change” value was 0.0432. For “COPG1_Q9Y678_97_EMSCIAEDVIIVTSSLTK (UniProt Q9Y678)”, the “probe-labelled cysteine peptide fold change” value came to 0.117.

For the target “COPG2_Q9UBF2_280_NKHEMVIYEAASAIIHLPNCTAR (UniProt Q9UBF2)”, the “probe-labelled cysteine peptide fold change” value is -0.158.

As to “CNOT7_Q9UIV1_13_ICEVWACNLDEEMKK (UniProt Q9UIV1)”, the “probe-labelled cysteine peptide fold change” value came to 0.14.

As to “COQ3_Q9NZJ6_358_GETEELQANACTNPAVHEK (UniProt Q9NZJ6)”, the “probe-labelled cysteine peptide fold change” value was -0.017. With “COPB2_P35606_104_CIAVHPTQPFILTSSDDMLIK (UniProt P35606)”, the “probe-labelled cysteine peptide fold change” value is 0.349. “COPS7B_Q9H9Q2_157_NQLLEVDFCIGR (UniProt Q9H9Q2)”: the “probe-labelled cysteine peptide fold change” value was -0.0213. Turning to COG1_Q8WTW3_318_LCSWFK (UniProt Q8WTW3), the “probe-labelled cysteine peptide fold change” value was -0.0568. Regarding “CMPK2_Q5EBM0_243_AVLDLVDQCPK (UniProt Q5EBM0)”, the “probe-labelled cysteine peptide fold change” value was -0.301. Next, “COPE_O14579_212_CSPTLLLLNGQAACHMAQGR (UniProt O14579)”: -0.161; “CNP_P09543_335_AHITLGCAADVEAVQTGLDLLEILRQEK (UniProt P09543)”: -0.271; “COPS4_Q9BT78_70_QLLTDFCTHLPNLPDSTAK (UniProt Q9BT78)”: -0.14. Consider “CNP_P09543_111_LDEDLAAYCR (UniProt P09543)”, for which the “probe-labelled cysteine peptide fold change” value is 0.204. Take “CNOT1_A5YKK6_1541_YCDPVVLTYQAER (UniProt A5YKK6)”: the “probe-labelled cysteine peptide fold change” value is -0.219. On to “COMT_P21964_207_DRYLPDTLLLEECGLLRK (UniProt P21964)”, for which the “probe-labelled cysteine peptide fold change” value is -0.173.

As for “CMC1_Q7Z7K0_77_ECLTAYYNDPAFYEECK (UniProt Q7Z7K0)”, the “probe-labelled cysteine peptide fold change” value was -0.176.
